# PubChem BioAssay AID2685 (National Center for Advancing Translational Sciences (NCATS), 2010)
# In all, about 320,000 compounds went through this assay and about 2,100 (0.66%) were called active. The shares of active, inactive and inconclusive entries below differ from those in the screen. Calls come from the whole dose curve; as a rule, active = well fitted inhibition curve with a large enough effect in the signal ratio, with a control signal flat (not every such curve was filed as active); inconclusive = small, poorly fitted or top-dose-only effect, or effect the other way, or a change in a side signal; inactive = flat fitted curve, though single readings scatter; the % refers to the signal ratio. Potencies of inconclusive entries are doubtful fits and often do not repeat.
# Assay: qHTS Assay for Lipid Storage Modulators in Drosophila S3 Cells
# Details: BODIPY lipid droplet fluorescence, 18-24 h, cells fed with added oleic acid; lipid storage change, negative = inhibition: at 46.1 µM (top of the series) unless noted
# How it was run: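 Drosophila S3 cells got compounds at several concentrations plus oleic acid (400 uM solution). Laser-scanning cytometry with 488 nm excitation read lipid droplets at 500-530 nm and cells at 575-640 nm. Percent activity was relative to 20 uM Triacsin C.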
# % is set by controls: 0 for no effect and ±100 for the full control effect; potency is the fitted concentration of half-maximal effect.
Structure (SMILES),Potency,"lipid storage change, negative = inhibition"
CC[n+]1c(/C=C/N(C)c2ccccc2)sc2ccc(Cl)cc21,"inconclusive: 29.1 µM [falling, single point]",
COc1ccc(CNCC(=O)N2CCC3(CC2)OCCO3)cc1,,inconclusive: -60.4%
CNC(C(=O)c1ccccc1)C(OC)c1ccccc1 (stereo unspecified),,inconclusive: 10.5%
Cc1cc(N2CCNCC2)nc2ccccc12,,inconclusive: -15.8%
Cc1cccc(N2C(=O)/C(=C/c3ccc(N4CCN(C)CC4)o3)C(=O)NC2=S)c1C,,inconclusive: -29.8%
Cc1cc(OCC(=O)N[C@@H](Cc2ccccc2)C(=O)O)c2c3c(c(=O)oc2c1)CCCC3,"inconclusive: 0.103 µM [falling, full curve, poor fit]",
O=C(Oc1ccc2ccccc2c1Cl)N1CCCC1,"inconclusive: 14.6 µM [activator, single point]",
Cc1sc2c(c1C)C(c1ccc(C(C)(C)C)cc1)=NCC(=O)N2CC(=O)Nc1nccs1,"inconclusive: 20.6 µM [falling, single point]",
CN1C(=O)C(=Cc2sc(=O)n(-c3ccccc3)c2N2CCCCC2)C(=O)N(C)C1=O,,inconclusive: -25.5%
CN(C)CC1CCCCC1OC(=O)Cc1ccc(Cl)c([N+](=O)[O-])c1 (stereo unspecified),"inconclusive: 29.1 µM [activator, partial curve]",
COC(=O)C1=C(c2ccccc2OCc2ccccc2)C[C@@H]2CC[C@H]1N2C(=O)NCc1ccc(C(C)(C)C)cc1,"inconclusive: 5.8 µM [activator, single point]",
C=CCN(C1CCCCC1)S(=O)(=O)c1ccc2c(c1)oc(=O)n2C,"inconclusive: 0.411 µM [activator, single point]",
N#CC(C#N)=Cc1ccc(-c2ccccc2)o1,,inconclusive: -35.6%
COc1ccc(CN2C(=O)CC(=O)NC2=O)cc1,,inconclusive: -52.7%
Cc1cc([P+](=O)O)c(C)n1-c1ccc(Br)cc1,"inconclusive: 0.82 µM [falling, single point]",
CCOc1cccc(CNC2CN3CCC2CC3)c1 (stereo unspecified),"inconclusive: 7.31 µM [falling, partial curve]",
O=C1C2CCCN2C(c2cccs2)N1c1ccccn1 (stereo unspecified),,inconclusive: -4.92%
Cc1nccn1Cc1ccc(Cl)nc1,,inconclusive: 15.3%
COc1cc(CN2CCNCC2)cc(OC)c1OC,,inconclusive: 16.5%
Cc1nc2ccccc2c(=O)n1-c1ccc([N+](=O)[O-])cc1,"inconclusive: 6.51 µM [activator, single point]",
CCN(CC)CCCN=Cc1c(O)n(-c2cccc(C)c2C)c(=O)[nH]c1=O,"inconclusive: 23.1 µM [falling, single point]",
Cc1cc(OCC(=O)NCc2ccc(S(N)(=O)=O)cc2)c2c3c(c(=O)oc2c1)CCC3,,inconclusive: -53.7%
C/C(=N\NC(=O)c1ccccc1O)c1c(O)n(Cc2ccccc2)c(=O)[nH]c1=O,,inconclusive: -1.89%
Cc1cc(N2C(=O)C3CCCN3C2c2sccc2C)no1 (stereo unspecified),,inconclusive: 6.57%
CC(=O)c1cccc(NC(=O)N2C[C@H]3C[C@@H](C2)c2cccc(=O)n2C3)c1,,inconclusive: 27.1%
NCC(CC(=O)O)c1ccc(Cl)cc1 (stereo unspecified),,inconclusive: -55.1%

Structure (SMILES),Potency,"lipid storage change, negative = inhibition"
COc1cccc(C2(O)CCN(CC(=O)Nc3nc(C)cs3)CC2)c1,,inconclusive: -51.8%
Cc1ncc(CN2CCCC(C(=O)c3cccc(OC(C)C)c3)C2)s1 (stereo unspecified),"inconclusive: 0.517 µM [falling, full curve, poor fit]",
Nc1ccc(Br)cc1C(=O)c1ccccc1,,inconclusive: -6.94%
CCn1c(=O)cc(OCC(=O)N2CCC3(CC2)OCCO3)c2ccccc21,,inconclusive: 13.2%
Cc1cc(OCc2ccc([N+](=O)[O-])cc2)c2c3c(c(=O)oc2c1)CCCC3,,inconclusive: 27%
Clc1ccccc1CN1CCN(c2ccccc2Cl)CC1,"inconclusive: 0.164 µM [rising, full curve, poor fit]",
COc1ccc(NC(=O)c2cc([N+](=O)[O-])ccc2N2CCNCC2)cc1,,inconclusive: 5.82%
COC(=O)C1=C(c2ccccc2OCc2ccccc2)C[C@@H]2CC[C@H]1N2C(=O)NCc1ccc(C(F)(F)F)cc1,"inconclusive: 18.4 µM [falling, partial curve, poor fit]",
CCOc1cc(/C=C2\C(=O)NC(=O)N(C)C2=O)cc([N+](=O)[O-])c1O,"inconclusive: 0.146 µM [falling, full curve]",
COC(=O)C1=C(c2ccc(-c3ccccc3)c(F)c2)C[C@@H]2CC[C@H]1N2C(=O)NCc1cccc2ccccc12,,inconclusive: -91.2%
O=C(COc1ccc(Cl)cc1)N1CCN(Cc2ccccc2)CC1,"inconclusive: 3.26 µM [activator, single point]",
COC(=O)C1=C(c2ccccc2OCc2ccccc2)C[C@@H]2CC[C@H]1N2C(=O)NCc1ccc(F)cc1,,inconclusive: -5.76%
Cc1ccc(-n2c(O)c(/C=N/NC(=O)c3ccncc3)c(=O)[nH]c2=O)cc1,,inactive
COc1ccc(C(=O)C2CN(C)CC2C(=O)c2ccc(OC)cc2)cc1 (stereo unspecified),,inconclusive: -9.36%
C=CCN1C(=O)/C(=C/c2ccc(Br)s2)C(=O)NC1=S,"inconclusive: 20.6 µM [falling, single point]",
COCCOC(=O)C1=C(N)OC(C)=C(C(=O)OC)C12C(=O)Nc1ccccc12 (stereo unspecified),,inconclusive: 5.33%
COc1ccc(C)cc1NC(=O)c1c(C)nn(Cc2ccccc2)c1Cl,,inactive
CCn1c(O)c(N=Nc2cccc(S(=O)(=O)N3CCOCC3)c2)c(=O)n(CC)c1=S,,inconclusive: -0.578%
Cc1nc2ccccc2c(=O)n1-c1cc([N+](=O)[O-])cc([N+](=O)[O-])c1,,inconclusive: -33.9%
CN(C)CC1CSCCC1(O)c1ccc(C(F)(F)F)cc1 (stereo unspecified),"inconclusive: 20.6 µM [activator, partial curve, poor fit]",
CCC(=NCc1ccco1)c1c(O)n(C2CCCCC2)c(=O)[nH]c1=O,"inconclusive: 29.1 µM [rising, single point]",
CCOc1ccc(N2C(=O)CC(=O)NC2=O)cc1,,inconclusive: 52.3%
O=C(OCC(=O)c1ccc([N+](=O)[O-])cc1)/C(=C/c1ccc(Cl)cc1)NC(=O)c1ccccc1,"inconclusive: 20.6 µM [falling, partial curve]",
Cc1nn(Cc2ccccc2)c(Cl)c1C(=O)O,,inconclusive: 72.1%
ClC(Cl)=C(c1ccc(Cl)cc1)c1ccc(Cl)cc1,,inconclusive: 24.3%
CCC(=O)Nc1ccccc1,,inconclusive: 21.1%

# 17 entries already listed, ordered by SMILES length, largest number first:
Structure (SMILES),Potency,"lipid storage change, negative = inhibition"
COC(=O)C1=C(c2ccccc2OCc2ccccc2)C[C@@H]2CC[C@H]1N2C(=O)NCc1ccc(C(F)(F)F)cc1,"inconclusive: 18.4 µM [falling, partial curve, poor fit]",
O=C(OCC(=O)c1ccc([N+](=O)[O-])cc1)/C(=C/c1ccc(Cl)cc1)NC(=O)c1ccccc1,"inconclusive: 20.6 µM [falling, partial curve]",
Cc1nc2ccccc2c(=O)n1-c1cc([N+](=O)[O-])cc([N+](=O)[O-])c1,,inconclusive: -33.9%
CCn1c(O)c(N=Nc2cccc(S(=O)(=O)N3CCOCC3)c2)c(=O)n(CC)c1=S,,inconclusive: -0.578%
CCOc1cc(/C=C2\C(=O)NC(=O)N(C)C2=O)cc([N+](=O)[O-])c1O,"inconclusive: 0.146 µM [falling, full curve]",
COCCOC(=O)C1=C(N)OC(C)=C(C(=O)OC)C12C(=O)Nc1ccccc12 (stereo unspecified),,inconclusive: 5.33%
COc1ccc(NC(=O)c2cc([N+](=O)[O-])ccc2N2CCNCC2)cc1,,inconclusive: 5.82%
CCn1c(=O)cc(OCC(=O)N2CCC3(CC2)OCCO3)c2ccccc21,,inconclusive: 13.2%
COc1ccc(C(=O)C2CN(C)CC2C(=O)c2ccc(OC)cc2)cc1 (stereo unspecified),,inconclusive: -9.36%
COc1ccc(C)cc1NC(=O)c1c(C)nn(Cc2ccccc2)c1Cl,,inactive
C=CCN1C(=O)/C(=C/c2ccc(Br)s2)C(=O)NC1=S,"inconclusive: 20.6 µM [falling, single point]",
O=C(COc1ccc(Cl)cc1)N1CCN(Cc2ccccc2)CC1,"inconclusive: 3.26 µM [activator, single point]",
CN(C)CC1CSCCC1(O)c1ccc(C(F)(F)F)cc1 (stereo unspecified),"inconclusive: 20.6 µM [activator, partial curve, poor fit]",
CCOc1ccc(N2C(=O)CC(=O)NC2=O)cc1,,inconclusive: 52.3%
Cc1nn(Cc2ccccc2)c(Cl)c1C(=O)O,,inconclusive: 72.1%
Nc1ccc(Br)cc1C(=O)c1ccccc1,,inconclusive: -6.94%
CCC(=O)Nc1ccccc1,,inconclusive: 21.1%

# Next records

Structure (SMILES),Potency,"lipid storage change, negative = inhibition"
COc1ccc2c(C)c(CC(=O)N3C[C@H]4C[C@@H](C3)c3cccc(=O)n3C4)c(=O)oc2c1,,inconclusive: 28.8%
CCC(C)n1c(O)c(C=NCCN2CCOCC2)c(=O)[nH]c1=S (stereo unspecified),,inactive
Cc1ccc(Cn2cc(C=O)c(-c3ccc(F)cc3)n2)cc1,,inconclusive: -36.9%
CC(=O)NCC(=O)Nc1ccc(Br)cc1C(=O)c1ccccc1,,inconclusive: 32.2%
Cc1cccc(OP(N)(=O)Oc2cccc(C)c2C)c1C,,inconclusive: 40.2%
CCCCC12CNCC(C)(CNC1)C2=O,"inconclusive: 8.2 µM [falling, single point]",
COc1ccc(NC(=O)c2cn(CCC#N)nc2-c2ccc(OC)c(OC)c2)cc1,"inconclusive: 3.66 µM [activator, full curve]",
O=C(CCn1c(=O)oc2ccccc21)NCc1ccco1,"inconclusive: 0.0366 µM [falling, partial curve, poor fit]",
CCCOP(=O)(c1ccc(N(C)C)cc1)C(O)c1ccc(N(C)C)cc1 (stereo unspecified),"inconclusive: 18.4 µM [activator, single point]",
Cc1ccc(-c2nc3ccccc3c(=O)n2-c2cc(C)ccn2)cc1,,inconclusive: -34.4%
Cc1cc(C=C2C(=O)NC(=S)NC2=O)c(C)n1C1CCCC1,,inconclusive: -6.65%
CCCCCSc1cc(O)c(C(CNC)C(C)C)cc1OC (stereo unspecified),"inconclusive: 2.06 µM [falling, partial curve]",
Cc1sc2ccccc2c1CC1=NCCN1,,inconclusive: 13.3%
O=C1NC(=S)NC(=O)C1C/C=C/c1ccccc1,,inconclusive: 8.98%
Cn1c(O)c(C(=Nc2ccccc2)SCc2ccccc2Cl)c(=O)n(C)c1=O,"inconclusive: 32.6 µM [falling, single point]",
COc1ccc(OCCOc2cccc(C=C3C(=O)NC(=O)NC3=O)c2)cc1,,inconclusive: 194%
Cc1ccc(N(C)C(=O)Oc2cccc3cccnc23)cc1,,inconclusive: -26%
CC(C)C(=O)NC(Oc1ccccc1Cl)C(Cl)(Cl)Cl (stereo unspecified),,inconclusive: -5.1%
COc1ccc(-c2nn(CCC#N)cc2C(=O)NCc2ccccc2)cc1,,inconclusive: 1.04%
O=C1/C(=C\c2ccc3c(c2)OCO3)N2CCC1CC2,,inconclusive: 17.9%
COC(=O)C1=C(c2ccc(OC(F)(F)F)cc2)C[C@@H]2CC[C@H]1N2C(=O)N1CCC(O)CC1,,inconclusive: 6.23%
COc1ccc(C2CN(C)CC2C(=O)c2ccc(F)cc2)cc1Cl (stereo unspecified),,inconclusive: 12.1%
O=c1c2ccccc2nc(-c2ccc(-c3ccccc3)cc2)n1-c1ccncc1,"inconclusive: 0.291 µM [activator, full curve]",
CCn1c(C)cc(/C=C2\C(=O)NC(=O)N(c3ccccc3C)C2=O)c1C,"inconclusive: 0.0731 µM [falling, full curve, poor fit]",
